Source: US20240190970A1
No constants are given. Whether binding was seen depends on the method and setting. Some entries that bind do so weakly or less than the wild type. Blank lines part the entries; values can stand above or below the binder they belong to.

What was measured:
[1] = target: Gal9 (%Gal9+ of CD3+, CD11b+ and EpCam+ cells); test: flow cytometry, % Gal9+ among CD11b+ cells, S3 fraction of a second pancreatic adenocarcinoma biopsy
[2] = target: Gal9 (%Gal9+ of CD3+, CD11b+ and EpCam+ cells); test: flow cytometry, % Gal9+ among CD11b+ cells, S3 fraction of a pancreatic adenocarcinoma biopsy
[3] = target: Gal9 (%Gal9+ of CD3+, CD11b+ and EpCam+ cells); test: flow cytometry, % Gal9+ among CD3+ cells, S2 fraction of a colorectal carcinoma biopsy
[4] = target: Gal9 (%Gal9+ of CD3+, CD11b+ and EpCam+ cells); test: flow cytometry, % Gal9+ among CD11b+ cells, S3 fraction of a colorectal carcinoma biopsy
[5] = target: Gal9 (%Gal9+ of CD3+, CD11b+ and EpCam+ cells); test: flow cytometry, % Gal9+ among CD3+ cells, S2 fraction of a second pancreatic adenocarcinoma biopsy
[6] = target: Gal9 (%Gal9+ of CD3+, CD11b+ and EpCam+ cells); test: flow cytometry, % Gal9+ among CD3+ cells, S3 fraction of a pancreatic adenocarcinoma biopsy
[7] = target: Gal9 (%Gal9+ of CD3+, CD11b+ and EpCam+ cells); test: flow cytometry, % Gal9+ among EpCam+ cells, S2 fraction of a second pancreatic adenocarcinoma biopsy
[8] = target: Gal9 (%Gal9+ of CD3+, CD11b+ and EpCam+ cells); test: flow cytometry, % Gal9+ among CD11b+ cells, S2 fraction of a colorectal carcinoma biopsy
[9] = target: Gal9 (%Gal9+ of CD3+, CD11b+ and EpCam+ cells); test: flow cytometry, % Gal9+ among CD3+ cells, S3 fraction of a colorectal carcinoma biopsy
[10] = target: Gal9 (%Gal9+ of CD3+, CD11b+ and EpCam+ cells); test: flow cytometry, % Gal9+ among CD3+ cells, S2 fraction of a pancreatic adenocarcinoma biopsy
[11] = target: Gal9 (%Gal9+ of CD3+, CD11b+ and EpCam+ cells); test: flow cytometry, % Gal9+ among CD3+ cells, S3 fraction of a second pancreatic adenocarcinoma biopsy
[12] = target: Gal9 (%Gal9+ of CD3+, CD11b+ and EpCam+ cells); test: flow cytometry, % Gal9+ among EpCam+ cells, S3 fraction of a pancreatic adenocarcinoma biopsy
[13] = target: Gal9 (%Gal9+ of CD3+, CD11b+ and EpCam+ cells); test: flow cytometry, % Gal9+ among EpCam+ cells, S3 fraction of a colorectal carcinoma biopsy
[14] = target: Gal9 (%Gal9+ of CD3+, CD11b+ and EpCam+ cells); test: flow cytometry, % Gal9+ among EpCam+ cells, S3 fraction of a second pancreatic adenocarcinoma biopsy
[15] = target: Gal9 (%Gal9+ of CD3+, CD11b+ and EpCam+ cells); test: flow cytometry, % Gal9+ among CD11b+ cells, S2 fraction of a second pancreatic adenocarcinoma biopsy
[16] = target: Gal9 (%Gal9+ of CD3+, CD11b+ and EpCam+ cells); test: flow cytometry, % Gal9+ among CD11b+ cells, S2 fraction of a pancreatic adenocarcinoma biopsy
[17] = target: Gal9 (%Gal9+ of CD3+, CD11b+ and EpCam+ cells); test: flow cytometry, % Gal9+ among EpCam+ cells, S2 fraction of a pancreatic adenocarcinoma biopsy
[18] = target: Gal9 (%Gal9+ of CD3+, CD11b+ and EpCam+ cells); test: flow cytometry, % Gal9+ among EpCam+ cells, S2 fraction of a colorectal carcinoma biopsy
[19] = target: cynomolgus galectin-9 CRD2 domain (cynomolgus monkey); test: bead-based binding assay
[20] = target: galectin-9 on the cell surface of the galectin-9 positive CRL-2134 cell line (human (human cancer cell line)) (UniProt O00182); test: cell-based binding
[21] = target: galectin-9 on the cell surface of the galectin-9 positive CRL-2134 cell line (human (human cancer cell line)) (UniProt O00182); test: cell surface staining, flow cytometry
[22] = target: cynomolgus galectin-9 CRD2 domain (cynomolgus monkey); test: in vitro binding (summary of Table 17)
[23] = target: Galectin-9 on CDI's HuProt Human Proteome Microarray (human) (UniProt O00182); test: HuProt Human Proteome Microarray, fluorescent secondary antibody
[24] = target: Galectin-9 on CDI's HuProt Human Proteome Microarray (human) (UniProt O00182); test: HuProt array, High-Spec antibody cross-reactivity assay, native proteins

binding [1]: binds
binding [2]: binds
binding [3]: binds
binding [4]: binds
binding [5]: binds
binding [6]: binds
binding [7]: binds
binding [8]: binds
binding [9]: binds
binding [10]: binds
binding [11]: binds
binding [12]: binds
binding [13]: binds
binding [14]: binds
binding [15]: binds
binding [16]: binds
binding [17]: binds
binding [18]: binds
B1: G9.2-17 Fab (Fab, V domains shown)
VH: EVQLVESGGGLVQPGGSLRLSCAASGFTVSSSSIHWVRQAPGKGLEWVAYISSSSGYTYYADSVKGRFTISADTSKNTAYLQMNSLRAEDTAVYYCARYWSYPSWWPYRGMDYWGQGTLVTVSS
VL: DIQMTQSPSSLSASVGDRVTITCRASQSVSSAVAWYQQKPGKAPKLLIYSASSLYSGVPSRFSGSRSGTDFTLTISSLQPEDFATYYCQQSSTDPITFGQGTKVEIKR

binding [19]: binds
binding [20]: binds
B2: G9.2-17 mIgG1 (antibody, V domains shown)
VH: B1 VH
VL: B1 VL

binding [21]: binds
binding [22]: binds
binding [23]: binds
binding [24]: binds
B3: G9.2-17 (IgG4) (antibody, V domains shown)
VH: B1 VH
VL: B1 VL
